{
  "sequences": {"note": "By UniProt entry, the sequences of proteins in these tests, tags left out. Residues count along the entry.", "UniProt P04202, residues 279-390": "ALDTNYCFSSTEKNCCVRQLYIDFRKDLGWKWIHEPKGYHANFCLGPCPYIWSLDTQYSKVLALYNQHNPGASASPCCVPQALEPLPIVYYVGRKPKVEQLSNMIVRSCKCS", "UniProt Q9D236, residues 24-459": "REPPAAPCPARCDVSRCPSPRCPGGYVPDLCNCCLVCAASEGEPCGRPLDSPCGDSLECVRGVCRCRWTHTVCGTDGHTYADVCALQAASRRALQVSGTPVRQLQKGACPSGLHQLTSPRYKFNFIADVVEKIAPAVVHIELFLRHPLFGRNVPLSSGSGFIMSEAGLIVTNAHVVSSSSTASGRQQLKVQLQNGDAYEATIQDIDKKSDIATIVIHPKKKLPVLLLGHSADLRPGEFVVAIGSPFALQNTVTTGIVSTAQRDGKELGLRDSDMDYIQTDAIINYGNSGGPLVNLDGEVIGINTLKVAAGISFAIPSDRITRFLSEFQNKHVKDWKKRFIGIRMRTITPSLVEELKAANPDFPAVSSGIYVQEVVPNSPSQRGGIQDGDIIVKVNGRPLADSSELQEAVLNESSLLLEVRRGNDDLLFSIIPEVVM"},
  "source": "patent US20260000742A1",
  "target": "mature TGF-β1 (UniProt P04202)",
  "test": "immunoprecipitation of Htra3-flag followed by western blot",
  "note": "No constants are given. Whether binding was seen depends on the method and setting. Some entries that bind do so weakly or less than the wild type.",
  "data": [
    {"substance": "Htra3 tagged with FLAG at the C-terminus (Htra3-flag protein) (from UniProt Q9D236 24-459) (enzyme)", "values": [
      {"measurement": "binding", "result": "binds"}
    ]}
  ]
}
